Assay results: US20220380454A1
No constants are given. Whether binding was seen depends on the method and setting. Binding seen in cells or lysates may run through a third protein. Some binding calls cover weakened binding; strength is not graded here. Sequences can lack the tags named with a protein.

The chains behind the UniProt entries cited, without tags or fusion partners. Residues count along the entry.
UniProt Q91ZI0, residues 32-3301: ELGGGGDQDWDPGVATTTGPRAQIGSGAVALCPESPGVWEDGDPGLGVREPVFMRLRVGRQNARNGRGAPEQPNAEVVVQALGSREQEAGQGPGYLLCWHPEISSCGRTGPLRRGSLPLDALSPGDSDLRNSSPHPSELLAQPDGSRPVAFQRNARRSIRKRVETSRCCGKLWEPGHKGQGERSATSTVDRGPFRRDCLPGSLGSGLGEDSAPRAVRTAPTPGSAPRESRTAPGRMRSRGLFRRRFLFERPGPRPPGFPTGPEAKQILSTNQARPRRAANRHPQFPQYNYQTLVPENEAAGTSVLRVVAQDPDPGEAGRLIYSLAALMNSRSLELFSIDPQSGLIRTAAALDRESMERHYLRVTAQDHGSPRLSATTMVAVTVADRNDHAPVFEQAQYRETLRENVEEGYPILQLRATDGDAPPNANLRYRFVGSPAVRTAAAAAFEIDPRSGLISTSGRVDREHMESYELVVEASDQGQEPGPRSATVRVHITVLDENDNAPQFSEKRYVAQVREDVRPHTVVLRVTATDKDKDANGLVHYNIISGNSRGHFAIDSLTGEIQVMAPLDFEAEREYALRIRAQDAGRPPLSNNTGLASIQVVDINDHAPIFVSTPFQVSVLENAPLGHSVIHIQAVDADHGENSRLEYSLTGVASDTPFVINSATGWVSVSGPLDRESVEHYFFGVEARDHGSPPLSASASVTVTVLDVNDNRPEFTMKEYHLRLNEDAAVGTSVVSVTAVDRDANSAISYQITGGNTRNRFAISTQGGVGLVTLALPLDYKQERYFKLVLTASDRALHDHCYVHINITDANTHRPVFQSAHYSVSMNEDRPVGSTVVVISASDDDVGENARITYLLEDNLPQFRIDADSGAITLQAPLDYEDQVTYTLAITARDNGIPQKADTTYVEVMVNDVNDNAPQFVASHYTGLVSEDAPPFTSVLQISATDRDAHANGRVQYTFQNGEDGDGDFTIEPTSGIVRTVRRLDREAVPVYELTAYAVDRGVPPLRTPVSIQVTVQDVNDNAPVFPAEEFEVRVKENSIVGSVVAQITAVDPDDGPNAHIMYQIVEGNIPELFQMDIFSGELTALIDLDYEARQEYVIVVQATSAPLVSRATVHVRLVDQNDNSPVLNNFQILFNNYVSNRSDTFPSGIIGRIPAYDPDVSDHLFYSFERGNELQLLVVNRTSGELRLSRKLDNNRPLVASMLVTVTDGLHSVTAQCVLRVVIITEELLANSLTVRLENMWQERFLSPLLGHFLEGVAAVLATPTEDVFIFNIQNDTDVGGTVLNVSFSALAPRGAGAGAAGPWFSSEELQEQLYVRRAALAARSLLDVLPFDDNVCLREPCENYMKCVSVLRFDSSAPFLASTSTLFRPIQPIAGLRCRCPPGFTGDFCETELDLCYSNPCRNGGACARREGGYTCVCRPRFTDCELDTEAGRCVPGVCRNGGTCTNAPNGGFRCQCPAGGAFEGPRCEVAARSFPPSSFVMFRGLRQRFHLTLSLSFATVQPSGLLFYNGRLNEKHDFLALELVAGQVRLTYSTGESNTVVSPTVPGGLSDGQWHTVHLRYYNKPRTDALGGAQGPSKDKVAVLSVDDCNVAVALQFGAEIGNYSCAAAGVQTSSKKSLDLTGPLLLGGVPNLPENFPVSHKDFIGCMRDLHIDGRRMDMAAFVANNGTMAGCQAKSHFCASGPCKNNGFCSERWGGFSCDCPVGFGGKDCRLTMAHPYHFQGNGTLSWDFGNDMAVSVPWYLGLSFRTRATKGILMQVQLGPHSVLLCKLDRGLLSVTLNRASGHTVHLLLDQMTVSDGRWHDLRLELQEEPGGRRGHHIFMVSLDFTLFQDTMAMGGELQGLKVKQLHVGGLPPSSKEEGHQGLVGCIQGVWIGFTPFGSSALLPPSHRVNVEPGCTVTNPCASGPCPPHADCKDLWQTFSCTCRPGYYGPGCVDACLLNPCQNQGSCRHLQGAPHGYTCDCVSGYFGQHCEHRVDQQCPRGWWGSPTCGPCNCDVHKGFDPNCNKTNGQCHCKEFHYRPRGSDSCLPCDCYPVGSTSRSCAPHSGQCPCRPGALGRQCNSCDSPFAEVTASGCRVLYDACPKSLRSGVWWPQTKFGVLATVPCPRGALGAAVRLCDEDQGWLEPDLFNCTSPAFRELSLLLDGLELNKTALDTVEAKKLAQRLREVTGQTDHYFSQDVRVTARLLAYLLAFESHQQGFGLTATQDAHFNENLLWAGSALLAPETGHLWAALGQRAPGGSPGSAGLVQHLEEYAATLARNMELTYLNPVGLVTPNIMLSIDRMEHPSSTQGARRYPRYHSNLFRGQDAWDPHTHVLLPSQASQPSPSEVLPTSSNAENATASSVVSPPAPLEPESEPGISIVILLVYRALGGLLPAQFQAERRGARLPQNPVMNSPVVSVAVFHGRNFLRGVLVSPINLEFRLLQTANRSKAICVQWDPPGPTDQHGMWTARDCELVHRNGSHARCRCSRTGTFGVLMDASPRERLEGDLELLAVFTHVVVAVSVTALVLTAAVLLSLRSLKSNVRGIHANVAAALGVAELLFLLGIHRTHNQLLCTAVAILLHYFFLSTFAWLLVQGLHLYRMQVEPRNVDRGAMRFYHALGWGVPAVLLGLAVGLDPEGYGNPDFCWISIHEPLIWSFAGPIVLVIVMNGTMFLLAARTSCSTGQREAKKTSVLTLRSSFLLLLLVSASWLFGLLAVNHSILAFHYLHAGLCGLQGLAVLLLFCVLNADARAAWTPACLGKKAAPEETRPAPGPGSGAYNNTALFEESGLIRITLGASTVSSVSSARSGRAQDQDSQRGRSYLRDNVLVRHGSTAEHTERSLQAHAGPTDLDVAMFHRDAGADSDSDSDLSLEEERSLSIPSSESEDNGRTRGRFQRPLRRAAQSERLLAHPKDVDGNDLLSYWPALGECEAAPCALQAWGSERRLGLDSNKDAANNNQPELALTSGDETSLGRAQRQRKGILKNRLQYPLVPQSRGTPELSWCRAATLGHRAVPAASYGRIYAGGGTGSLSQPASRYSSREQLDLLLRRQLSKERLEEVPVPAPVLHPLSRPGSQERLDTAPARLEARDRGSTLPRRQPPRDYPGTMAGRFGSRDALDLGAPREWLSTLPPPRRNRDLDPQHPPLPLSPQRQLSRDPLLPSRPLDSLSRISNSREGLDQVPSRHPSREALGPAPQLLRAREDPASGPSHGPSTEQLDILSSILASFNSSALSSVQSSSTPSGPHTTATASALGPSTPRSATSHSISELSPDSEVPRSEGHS

Key:
[1] = biological target: mouse Celsr3 (Celsr3-Flag) (mouse) (UniProt Q91ZI0); test: co-IP, legend of FIG. 9A
[2] = biological target: mouse Celsr3 (Celsr3-Flag) (mouse) (UniProt Q91ZI0); test: co-IP of the intercellular complex (IP: HA, blot Flag); untagged Celsr3 and Frizzled3-HA in cell a, Celsr3-flag in cell b, with or without Aβ oligomer
[3] = biological target: mouse Celsr3 (Celsr3-Flag) (mouse) (UniProt Q91ZI0); test: co-IP (IP: HA, blot Flag), quantified; Frizzled3-HA and Celsr3-flag in the same HEK293T cell, with or without Aβ oligomer
[4] = biological target: mouse Celsr3 (Celsr3-Flag) (mouse) (UniProt Q91ZI0); test: co-IP of the intercellular complex (IP: HA, blot Flag); mixed HEK293T cultures, Frizzled3-HA and untagged Celsr3 in cell a, Celsr3-flag with or without Flag-Vangl2 in cell b; the pull-down runs through the untagged Celsr3 of cell a
[5] = biological target: mouse Celsr3 (Celsr3-Flag) (mouse) (UniProt Q91ZI0); test: co-IP of the intercellular complex (IP: HA, blot Flag), quantified; untagged Celsr3 and Frizzled3-HA in cell a, Celsr3-flag in cell b, with or without Aβ oligomer
[6] = biological target: mouse Celsr3 (Celsr3-Flag) (mouse) (UniProt Q91ZI0); test: co-IP (IP: HA, blot Flag); Frizzled3-HA and Celsr3-flag in the same HEK293T cell, with or without Aβ oligomer
[7] = biological target: mouse Celsr3 (Celsr3-Flag) (mouse) (UniProt Q91ZI0); test: co-IP of the intercellular complex (IP: HA, blot Flag), quantified; Frizzled3-HA and untagged Celsr3 in cell a, Celsr3-flag with or without Flag-Vangl2 in cell b
[8] = biological target: mouse Celsr3 (Celsr3-Flag) (mouse) (UniProt Q91ZI0); test: co-IP (IP: HA, blot Flag), quantified; Celsr3-Flag and Frizzled3-HA in cell a, with or without Flag-Vangl2 in cell b, with or without Aβ oligomer
[9] = biological target: mouse Celsr3 (Celsr3-Flag) (mouse) (UniProt Q91ZI0); test: co-IP (IP: HA, blot Flag); mixed HEK293T cultures, Frizzled3-HA and Celsr3-Flag in cell a, with or without untagged Celsr3 in cell b
[10] = biological target: mouse Celsr3 (Celsr3-Flag) (mouse) (UniProt Q91ZI0); test: co-IP (IP: HA, blot Flag), quantified; mixed HEK293T cultures, Frizzled3-HA and Celsr3-Flag in cell a, with or without Flag-Vangl2 in cell b
[11] = biological target: mouse Celsr3 (Celsr3-Flag) (mouse) (UniProt Q91ZI0); test: co-IP of Frizzled3 with wild type Celsr3 expressed in the same HEK293T cells (reference of the deletion constructs)
[12] = biological target: mouse Celsr3 (Celsr3-Flag) (mouse) (UniProt Q91ZI0); test: co-IP (IP: HA, blot Flag), quantified; mixed HEK293T cultures, Frizzled3-HA and Celsr3-Flag in cell a, with or without untagged Celsr3 in cell b
[13] = biological target: mouse Celsr3 (Celsr3-Flag) (mouse) (UniProt Q91ZI0); test: co-IP (IP: HA, blot Flag); mixed HEK293T cultures, Celsr3-Flag and Frizzled3-HA in cell a, with or without Flag-Vangl2 in cell b, with or without Aβ oligomer

Measured: binding

B1: Frizzled3-HA (receptor, not shown: small tags and cut ends)
chain: HSLFSCEPITLRMCQDLPYNTTFMPNLLNHYDQQTAALAMEPFHPMVNLDCSRDFRPFLCALYAPICMEYGRVTLPCRRLCQRAYSECSKLMEMFGVPWPEDMECSRFPDCDEPYPRLVDLNLVGDPTEGAPVAVQRDYGFWCPRELKIDPDLGYSFLHVRDCSPPCPNMYFRREELSFARYFIGLISIICLSATLFTFLTFLIDVTRFRYPERPIIFYAVCYMMVSLIFFIGFLLEDRVACNASSPAQYKASTVTQGSHNKACTMLFMVLYFFTMAGSVWWVILTITWFLAAVPKWGSEAIEKKALLFHASAWGIPGTLTIILLAMNKIEGDNISGVCFVGLYDVDALRYFVLAPLCLYVVVGVSLLLAGIISLNRVRIEIPLEKENQDKLVKFMIRIGVFSILYLVPLLVVIGCYFYEQAYRGIWETTWIQERCREYHIPCPYQVTQMSRPDLILFLMKYLMALIVGIPSIFWVGSKKTCFEWASFFHGRRKKEIVNESRQVLQEPDFAQSLLRDPNTPIIRKSRGTSTQGTSTHASSTQLAMVDDQRSKAGSVHSKVSSYHGSLHRSRDGRYTPCSYRGMEERLPHGSMSRLTDHSRHSSSHRLNEQSRHSSIRDLSNNPMTHITHGTSMNRVIEEDGTSA
binds: [1] | [2] | [3] | [4] | [5] | [6] | [7] | [8] | [9] | [10] | [11] | [12] | [13]
